# Results published in the supplement of paper PMC8728848.
# The other results are listed elsewhere or left out.
# B1: OS9 (Arabidopsis thaliana) (protein)
# chain: MRGSHHHHHHGMASMTGGQQMGRDLYDDDDKSRLQIFPAHLVGTFSRNNREPKYKIEFLPEDSPFHPGDNLESMVMLDKHGNRFLCYLPKEEKATSGWTSSQQNISTVMMETQQLVKLKTPDELLQPLSEKCLFRQEGWWSYEFCHQKYVRQLHVEDENKIVQEFFLGTFDPEATAAFNQTVSDASTDASQRYHSHVYTNGTTCDLTGSPAEVEVRFVCAETRAMVTSITELSTCKYALTVQCPTLCKHPLFQLEKPVSHTIHCNAIPVEEDATRNKEEQAVDESPKMIADS
# Assays:
# Experiment in all cases: glycan array binding signal (z-score within array); higher = stronger binding
# Conditions in all cases: glycan notation: IUPAC condensed, linker removed; mutation: R201A
# [1] = target: Neu5Ac(a2-3)Gal(b1-4)GlcNAc(b1-3)Gal(b1-4)GlcNAc(b1-2)Man(a1-3)[Neu5Ac(a2-3)Gal(b1-4)GlcNAc(b1-3)Gal(b1-4)GlcNAc(b1-2)Man(a1-6)]Man(b1-4)GlcNAc(b1-4)GlcNAc
# In short: (§1)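 Glycan array data were curated from 3228 arrays in the Consortium for Functional Glycomics database and kept only where the protein sequence was available. Glycan names were converted to IUPAC-condensed notation, and columns mapping to the same glycan were averaged. The binding signal is a within-array Z-score, averaged across arrays of the same protein sequence at different concentrations or buffers and across linkers. Negative Z-scores can be read as non-binding.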
# [2] = target: Neu5Ac(a2-3)Gal(b1-4)GlcNAc(b1-3)Gal(b1-4)GlcNAc(b1-3)Gal(b1-4)GlcNAc
# In short: as §1
# [3] = target: Neu5Ac(a2-3)Gal(b1-4)GlcNAc(b1-3)Gal(b1-4)GlcNAc(b1-3)Gal(b1-4)GlcNAc(b1-2)Man(a1-3)[Neu5Ac(a2-3)Gal(b1-4)GlcNAc(b1-3)Gal(b1-4)GlcNAc(b1-3)Gal(b1-4)GlcNAc(b1-2)Man(a1-6)]GalNAc
# In short: as §1
# [4] = target: Neu5Ac(a2-3)Gal(b1-4)GlcNAc(b1-3)Gal(b1-4)GlcNAc(b1-3)GalNAc
# In short: as §1
# [5] = target: Neu5Ac(a2-3)Gal(b1-4)GlcNAc(b1-3)Gal(b1-4)GlcNAc(b1-3)[Neu5Ac(a2-3)Gal(b1-4)GlcNAc(b1-3)Gal(b1-4)GlcNAc(b1-6)]GalNAc
# In short: as §1
# [6] = target: Neu5Ac(a2-3)Gal(b1-4)GlcNAc(b1-3)Gal(b1-4)GlcNAc(b1-6)[Gal(b1-3)]GalNAc
# In short: as §1
# [7] = target: Neu5Ac(a2-3)Gal(b1-4)GlcNAc(b1-3)Gal(b1-4)[Fuc(a1-3)]GlcNAc
# In short: as §1
# [8] = target: Neu5Ac(a2-3)Gal(b1-4)GlcNAc(b1-3)GalNAc
# In short: as §1
# [9] = target: Neu5Ac(a2-3)Gal(b1-4)GlcNAc(b1-3)[Neu5Ac(a2-3)Gal(b1-4)GlcNAc(b1-6)]GalNAc
# In short: as §1
# [10] = target: Neu5Ac(a2-3)Gal(b1-4)GlcNAc(b1-6)GalNAc
# In short: as §1
# [11] = target: Neu5Ac(a2-3)Gal(b1-4)GlcNAc(b1-6)[Gal(b1-3)]GalNAc
# In short: as §1
# [12] = target: Neu5Ac(a2-3)Gal(b1-4)GlcNAc(b1-6)[Neu5Ac(a2-3)Gal(b1-3)]GalNAc
# In short: as §1
# [13] = target: Neu5Ac(a2-3)Gal(b1-4)GlcNAc6S
# In short: as §1
# [14] = target: Neu5Ac(a2-3)Gal(b1-4)[Fuc(a1-3)]GlcNAc
# In short: as §1
# [15] = target: Neu5Ac(a2-3)Gal(b1-4)[Fuc(a1-3)]GlcNAc(b1-2)Man
# In short: as §1
# [16] = target: Neu5Ac(a2-3)Gal(b1-4)[Fuc(a1-3)]GlcNAc(b1-3)Gal
# In short: as §1
# [17] = target: Neu5Ac(a2-3)Gal(b1-4)[Fuc(a1-3)]GlcNAc(b1-3)Gal(b1-4)GlcNAc
# In short: as §1
# [18] = target: Neu5Ac(a2-3)Gal(b1-4)[Fuc(a1-3)]GlcNAc(b1-3)Gal(b1-4)[Fuc(a1-3)]GlcNAc(b1-3)Gal(b1-4)[Fuc(a1-3)]GlcNAc
# In short: as §1
# [19] = target: Neu5Ac(a2-3)Gal(b1-4)[Fuc(a1-3)]GlcNAc(b1-3)GalNAc
# In short: as §1
# [20] = target: Neu5Ac(a2-3)Gal(b1-4)[Fuc(a1-3)]GlcNAc(b1-6)[Gal(b1-3)]GalNAc
# In short: as §1
# [21] = target: Neu5Ac(a2-3)Gal(b1-4)[Fuc(a1-3)]GlcNAc(b1-6)[Neu5Ac(a2-3)Gal(b1-3)]GalNAc
# In short: as §1
# [22] = target: Neu5Ac(a2-3)Gal(b1-4)[Fuc(a1-3)]GlcNAc6S
# In short: as §1
# [23] = target: Neu5Ac(a2-3)Gal6S(b1-4)GlcNAc
# In short: as §1
# [24] = target: Neu5Ac(a2-3)Gal6S(b1-4)[Fuc(a1-3)]GlcNAc
# In short: as §1
# [25] = target: Neu5Ac(a2-3)GalNAc
# In short: as §1
# [26] = target: Neu5Ac(a2-3)GalNAc(b1-4)GlcNAc
# In short: as §1
# [27] = target: Neu5Ac(a2-3)[GalNAc(b1-4)]Gal(b1-4)Glc
# In short: as §1
# [28] = target: Neu5Ac(a2-3)[GalNAc(b1-4)]Gal(b1-4)GlcNAc
# In short: as §1
# [29] = target: Neu5Ac(a2-3)[GalNAc(b1-4)]Gal(b1-4)GlcNAc(b1-3)GalNAc
# In short: as §1
# [30] = target: Neu5Ac(a2-3)[Neu5Ac(a2-6)]GalNAc
# In short: as §1
# [31] = target: Neu5Ac(a2-6)Gal
# In short: as §1
# [32] = target: Neu5Ac(a2-6)Gal(b1-3)GlcNAc(b1-3)[Gal(b1-4)GlcNAc(b1-6)]Gal(b1-4)Glc
# In short: as §1
# [33] = target: Neu5Ac(a2-6)Gal(b1-4)Glc
# In short: as §1
# [34] = target: Neu5Ac(a2-6)Gal(b1-4)GlcNAc
# In short: as §1
# [35] = target: Neu5Ac(a2-6)Gal(b1-4)GlcNAc(b1-2)Man
# In short: as §1
# [36] = target: Neu5Ac(a2-6)Gal(b1-4)GlcNAc(b1-2)Man(a1-3)Man(b1-4)GlcNAc(b1-4)GlcNAc
# In short: as §1
# [37] = target: Neu5Ac(a2-6)Gal(b1-4)GlcNAc(b1-2)Man(a1-3)[Gal(b1-4)GlcNAc(b1-2)Man(a1-6)]Man(b1-4)GlcNAc(b1-4)GlcNAc
# In short: as §1
# [38] = target: Neu5Ac(a2-6)Gal(b1-4)GlcNAc(b1-2)Man(a1-3)[GlcNAc(b1-4)][Neu5Ac(a2-6)Gal(b1-4)GlcNAc(b1-2)Man(a1-6)]Man(b1-4)GlcNAc(b1-4)GlcNAc
# In short: as §1
binder,measurement,setting,value
B1,glycan array binding signal (z-score),[1],0.578
same,glycan array binding signal (z-score),[2],-0.096
same,glycan array binding signal (z-score),[3],-0.399
same,glycan array binding signal (z-score),[4],0.811
same,glycan array binding signal (z-score),[5],1.19
same,glycan array binding signal (z-score),[6],1.23
same,glycan array binding signal (z-score),[7],0.333
same,glycan array binding signal (z-score),[8],-0.129
same,glycan array binding signal (z-score),[9],1.01
same,glycan array binding signal (z-score),[10],-0.368
same,glycan array binding signal (z-score),[11],-0.726
same,glycan array binding signal (z-score),[12],-0.368
same,glycan array binding signal (z-score),[13],-0.49
same,glycan array binding signal (z-score),[14],-0.306
same,glycan array binding signal (z-score),[15],-0.537
same,glycan array binding signal (z-score),[16],-1.16
same,glycan array binding signal (z-score),[17],1.98
same,glycan array binding signal (z-score),[18],0.079
same,glycan array binding signal (z-score),[19],0.493
same,glycan array binding signal (z-score),[20],-0.48
same,glycan array binding signal (z-score),[21],-0.099
same,glycan array binding signal (z-score),[22],-1.1
same,glycan array binding signal (z-score),[23],-0.053
same,glycan array binding signal (z-score),[24],0.12
same,glycan array binding signal (z-score),[25],-0.751
same,glycan array binding signal (z-score),[26],-0.513
same,glycan array binding signal (z-score),[27],0.019
same,glycan array binding signal (z-score),[28],0.238
same,glycan array binding signal (z-score),[29],1.18
same,glycan array binding signal (z-score),[30],-0.469
same,glycan array binding signal (z-score),[31],0.561
same,glycan array binding signal (z-score),[32],-0.276
same,glycan array binding signal (z-score),[33],-0.544
same,glycan array binding signal (z-score),[34],-0.705
same,glycan array binding signal (z-score),[35],-0.879
same,glycan array binding signal (z-score),[36],1.26
same,glycan array binding signal (z-score),[37],-0.578
same,glycan array binding signal (z-score),[38],-0.484

# Part of the list above, bar-delimited.
binder | measurement | setting | value
B1 | glycan array binding signal (z-score) | [30] | -0.469
same | glycan array binding signal (z-score) | [31] | 0.561
same | glycan array binding signal (z-score) | [32] | -0.276
